In PubChem BioAssay AID2685 (National Center for Advancing Translational Sciences (NCATS), 2010):
The other results are listed elsewhere or left out. The main result of the screen is listed elsewhere. These columns were measured beside it and carry no call. Most of these compounds were active or inconclusive in the main read-out, so they are no random draw. The note in brackets gives the kind of curve behind each potency; many fits are weak.

Assay: qHTS Assay for Lipid Storage Modulators in Drosophila S3 Cells;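 for cell number change: cells counted by Cell Tracker Red CMTPX staining in the red channel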
Conditions: BODIPY lipid droplet fluorescence, 18-24 h; for cell number change: measured here: cell count max response, cells fed with added oleic acid
Procedure, shortened: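 Drosophila S3 cells loaded with oleic acid (400 uM, as added) and compounds at several concentrations; lipid droplets imaged by 488-nm laser-scanning cytometry, 500–530 nm intensity and object ratio to cell channel. Percent activity normalized to 20 uM Triacsin C.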

[1] = measured here: lipid fluorescence (Fed channel) AC50, cells fed with added oleic acid
[2] = measured here: cell number channel AC50, cells fed with added oleic acid

| SMILES | cell number change | AC50 [1] | AC50 [2] |
| --- | --- | --- | --- |
| Cc1c(Cl)cccc1NC(=O)CC1Sc2ccccc2NC1=O (stereo unspecified) | 3.91% | 1.3 µM [rising, full curve, poor fit] | – |
| O=S(=O)(Nc1cc(S(=O)(=O)N2CCCC2)ccc1O)c1ccc(Cl)s1 | -57% | – | 5.8 µM [falling, full curve, poor fit] |
| COc1ccc(Nc2nnc(SCC(=O)c3cc4ccccc4o3)s2)cc1 | -6.8% | 14.6 µM [falling, partial curve] | – |
| O=C(CSc1nnc(-c2ccccn2)n1Cc1ccco1)c1ccc(Cl)cc1 | 86.3% | – | 16.4 µM [rising, partial curve] |
| CC(=O)SC1CC2=CC(=O)CCC2(C)C2CCC3(C)C(CCC34CCC(=O)O4)C12 (stereo unspecified) | -19.2% | 20.6 µM [falling, partial curve, poor fit] | 0.651 µM [falling, full curve, poor fit] |
| CN1CCN(C(=O)c2ccc(CSc3nc4ccncc4n3Cc3ccc(F)cc3)cc2)CC1 | 12.7% | 0.651 µM [falling, full curve, poor fit] | – |
| CCOC(=O)C1CCCN(C(=O)Cc2ccc(OC)c(OC)c2)C1 (stereo unspecified) | 14.1% | 8.2 µM [rising, partial curve] | – |
| O=C(c1ccccc1Oc1ccc(C(F)(F)F)cc1[N+](=O)[O-])N1CCOCC1 | 68.7% | 29.1 µM [rising, single point] | 29.1 µM [rising, single point] |
| CCOc1ccc(C2NCCc3cc(OC)c(OC)cc32)cc1OC (stereo unspecified) | 17.8% | – | – |
| c1ccc2cc(Cn3ccnc3)ccc2c1 | -4.14% | – | – |
| CCCC(=O)n1nc(NCc2ccc(OC)cc2)nc1NCc1ccc(OC)cc1 | -42.5% | – | – |
| COc1cc(C)c(-c2cc(C(=O)O)c(C)o2)cc1C(C)C | 79.9% | – | 13 µM [rising, partial curve] |
| O=C(Nc1cccnc1Cl)c1cc(-c2ccc(F)cc2)on1 | – | 6.51 µM [rising, single point] | – |
| Cc1nn(CC#N)c(=O)n1N(C)c1ncc(C(F)(F)F)cc1Cl | -20.2% | 0.82 µM [falling, full curve] | – |
| CCN(CC)C(=O)c1cccc(NC(=O)C2=COCCO2)c1 | -3.47% | 0.259 µM [falling, full curve, poor fit] | 0.366 µM [falling, single point] |
| COc1ccc(-n2ncc(C(=O)N3CCN(c4ccc(F)cc4)CC3)c2C)cc1 | 21.8% | 0.651 µM [rising, partial curve] | 0.517 µM [rising, full curve, poor fit] |
| CC(=O)c1cccc(S(=O)(=O)Nc2cccnc2)c1 | 21% | – | – |
| Cc1ccc(NC(=O)NC2CCCCCCC2)cc1 | -22.5% | 0.103 µM [falling, full curve, poor fit] | – |
| O=c1c2ccccc2nc(/C=C/c2ccccc2)n1CCCO | 6.94% | 29.1 µM [rising, partial curve, poor fit] | – |
| CCCNC(=O)C1CN(S(=O)(=O)c2ccc(Cl)s2)c2ccccc2O1 (stereo unspecified) | -4.16% | 29.1 µM [rising, single point] | – |

| SMILES | cell number change | AC50 [1] | AC50 [2] |
| --- | --- | --- | --- |
| Cc1ccc(S(=O)(=O)N2CCN(C(=O)COC(=O)COc3ccccc3)CC2)cc1 | 46.6% | 13 µM [rising, partial curve] | 11.6 µM [rising, partial curve] |
| CCc1ccc(OCC(=O)NC(NC(=S)Nc2ccccc2)C(Cl)(Cl)Cl)cc1 (stereo unspecified) | 16.2% | 0.058 µM [rising, full curve, poor fit] | – |
| COc1cc(/C=C2\SC(=Nc3ccccc3)NC2=O)cc(Cl)c1O | -95.1% | – | – |
| COC(=O)C1(C(F)(F)F)N=C(N(C)C)OC(N(C)C)=N1 | -27.2% | 3.66 µM [falling, full curve] | 3.66 µM [falling, full curve, poor fit] |
| CCCCC(=O)NC(NC(=S)N1CCCCCC1)C(Cl)(Cl)Cl (stereo unspecified) | 5.57% | 18.4 µM [falling, single point] | – |
| CC(C)c1ccc(NC(=O)c2ccc3c(c2)CCN3S(C)(=O)=O)cc1 | 39.7% | – | 23.1 µM [rising, single point] |
| COc1ccc(OC)c(S(=O)(=O)N2CCN(C34CC5CC(CC(C5)C3)C4)CC2)c1 | 2.3% | 20.6 µM [rising, single point] | – |
| Cc1ccc(NC(=O)c2ccccc2NC(=O)c2cccs2)cc1 | 25.6% | – | – |
| Nc1ccc2nc(SCc3ccc([N+](=O)[O-])cc3)sc2c1 | -15.3% | 6.51 µM [rising, partial curve] | – |
| CCCc1nnc(NC(=O)CSc2nnc(-c3ccco3)n2C)s1 | 24.3% | – | – |
| O=C(COc1ccccc1F)Nc1ccccc1C(=O)NC1CC1 | -8.78% | – | 1.84 µM [falling, partial curve] |
| Cc1cccc2sc(NNC(=O)c3cc(=O)c4ccccc4o3)nc12 | 10.1% | – | – |
| S=C(NCCN1CCOCC1)NC1CCCC1 | -53.9% | – | 20.6 µM [falling, partial curve, poor fit] |
| COc1ccccc1NC(=O)CSc1nnc(-c2ccncc2)o1 | -59.2% | – | 29.1 µM [falling, single point] |
| O=C(Cn1[nH]c(=O)c2ccccc2c1=O)NC1CCN(Cc2ccccc2)CC1 | -17.9% | 2.91 µM [falling, full curve] | – |
| O=C(CSc1nnc(C2CC2)n1Cc1ccccc1)NCc1ccccc1 | -2.06% | – | – |
| CN1CCN(C(=O)c2cccc(S(=O)(=O)N3CCCC3)c2)CC1 | – | 0.731 µM [falling, full curve] | 0.651 µM [falling, full curve] |
| COc1ccc(C(=O)Nc2ccccc2NC(=O)c2ccco2)c(OC)c1 | 23.5% | 29.1 µM [falling, single point] | – |
| COc1ccc2c(c1[N+](=O)[O-])CCC/C2=N/OC(=O)c1ccccc1SC | -3.63% | – | – |
| CN(Cc1ccccc1)C(=O)CCCn1c(=O)[nH]c2cc(Cl)ccc2c1=O | -0.223% | 16.4 µM [falling, partial curve] | 3.26 µM [rising, partial curve, poor fit] |

Gathered by group, the compounds so far containing a thiophene ring, fused or not.

| SMILES | cell number change | AC50 [1] | AC50 [2] |
| --- | --- | --- | --- |
| O=S(=O)(Nc1cc(S(=O)(=O)N2CCCC2)ccc1O)c1ccc(Cl)s1 | -57% | – | 5.8 µM [falling, full curve, poor fit] |
| CCCNC(=O)C1CN(S(=O)(=O)c2ccc(Cl)s2)c2ccccc2O1 (stereo unspecified) | -4.16% | 29.1 µM [rising, single point] | – |
| Cc1ccc(NC(=O)c2ccccc2NC(=O)c2cccs2)cc1 | 25.6% | – | – |
